In patent US7538099B1, “Antiprogestin method and kit for reducing side effects associated with low dosage HRT, oral contraception and regulating menses” (Eastern Virginia Medical School, priority 1992, dated 2009):
For at least one compound, name, drawing or mass did not settle the structure.

What was measured:
[1] = test system: endometrial, myometrial and cervical receptors; conditions: this dose (50 mg) of RU 486; usually; cited from earlier work
[2] = test system: adult female rhesus monkeys; test: Example I Part II: daily vaginal swabs for bleeding, ultra low dose oral contraception with or without intermittent RU 486, 180 days; assay type: in vivo, Macaca mulatta; conditions: RU 486 added intermittently to continuous oral contraceptive regimen
From the text: In Part II, 30 of these primates were randomly assigned to five treatment groups of six each: (1) the oral contraceptive medication employed in Part I was continued (21+7 day regimen) for 6 months; (2) continuous (no “pill-free” interval) daily estrogen-progestin medication, with combined single day oral administration of an antiprogestin (RU 486) on treatment days 30, 60, 90, 120, 150, and 180; (3) same as group 2, except that the progesterone antagonist was given only on days 60, 120, and 180; (4) same as group 2, except that RU 486 was given only on days 90 and 180; and (5) 180 days of continuous estrogen-progestin daily therapy, but without any antiprogestin treatment. Daily monitoring to detect vaginal blood, as in Part I above, was discontinued at 187 days. […] Likewise, these same specimens were analyzed for estradiol levels in order to monitor ongoing endogenous estrogen biosynthesis. […]
Data derived from Part II of the study was listed by treatment group with the profiles of endometrial bleeding through six treatment cycles to 180 days. Mean (+SEM) number of days for breakthrough bleeding or menses was calculated by dividing the total number of incidents recorded (per treatment cycle in the case of group 1 or 30 days intervals for groups 2 to 5) by the number of individuals observed in the group. […]

## CC#C[C@]1(O)CC[C@H]2[C@@H]3CCC4=CC(=O)CCC4=C3[C@@H](c3ccc(N(C)C)cc3)C[C@@]21C [RU 486]
[1]
  time to complete sloughing of uterine fundal and isthmic tissue: ≤ 48 h
[2]
  amenorrhea (failure to bleed) after RU 486: no monkeys failed to bleed after RU 486
